Measurements reported in PubChem BioAssay AID493246 (Drosophila RNAi Screening Center, 2011).
The deposit covers about 21,000 reagents; this is an unselected part of those with a known target gene and a result. Of all reagents, 429 (2%) were called active. 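Values are raw and not normalised between plates; calls rest on per-plate z-scores that were not deposited.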 Reagents against one gene are numbered here. A plus sign joins genes that one reagent is predicted to hit. The record does not give: the amount of reagent, the time to read-out.

Assay: 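Genes fly cells need to grow and stay alive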 (primary screen)
Cells: Drosophila Kc and S2R+ cells
Reagents: long dsRNA against Drosophila genes
Measurement: 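Raw, unnormalised count of remaining cells in each well; per-plate z-scores of cell number underlie the calls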
Scale: Kc cell number and S2R+ cell number: higher = more cells remaining
Hit rule: 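Counted as a hit if cell number falls by a z-score of at least 3 within its plate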

| gene | reagent no. | Kc cell number, rep 1 | Kc cell number, rep 2 | S2R+ cell number, rep 1 | S2R+ cell number, rep 2 | call |
| --- | --- | --- | --- | --- | --- | --- |
| CG1620 | 1 | 1.32e6 | 1.38e6 | 9.20e5 | 1.00e6 | inactive |
| nxf2 | 1 | 1.57e6 | 1.66e6 | 1.26e6 | 1.33e6 | inactive |
| otk | 1 | 1.60e6 | 1.70e6 | 1.36e6 | 1.52e6 | inactive |
| CG17618 (retired record) + CG45049 | 1 | 1.46e6 | 1.43e6 | 9.89e5 | 1.09e6 | inactive |
| CG17029 | 1 | 1.35e6 | 1.44e6 | 1.23e6 | 1.31e6 | inactive |
| CG4594 | 1 | 1.27e6 | 1.33e6 | 1.27e6 | 1.19e6 | inactive |
| ZnT49B | 1 | 1.62e6 | 1.62e6 | 1.19e6 | 1.32e6 | inactive |
| PrBP | 1 | 1.54e6 | 1.57e6 | 1.26e6 | 1.40e6 | inactive |
| grau | 1 | 1.53e6 | 1.63e6 | 1.29e6 | 4.69e5 | inactive |
| comm3 | 1 | 1.52e6 | 1.58e6 | 1.27e6 | 1.40e6 | inactive |
| comm3 | 2 | 1.57e6 | 1.58e6 | 1.18e6 | 1.36e6 | inactive |
| comm3 | 3 | 1.41e6 | 1.42e6 | 1.21e6 | 1.35e6 | inactive |
| Klp59D | 1 | 1.66e6 | 1.68e6 | 1.38e6 | 1.48e6 | inactive |
| ND-B18 | 1 | 1.51e6 | 1.55e6 | 1.07e6 | 1.20e6 | inactive |
| ebo | 1 | 4.61e5 | – | 7.59e5 | – | inactive |
| Ipk2 | 1 | 1.60e6 | 1.65e6 | 1.01e6 | 1.15e6 | inactive |
| CG5849 | 1 | 1.34e6 | 1.37e6 | 1.04e6 | 1.11e6 | inactive |
| lectin-46Cb | 1 | 1.78e6 | 1.84e6 | 1.26e6 | 1.52e6 | inactive |
| CG31058 (retired record) | 1 | 1.50e6 | 1.61e6 | 6.78e5 | 7.74e5 | active |
| CG6125 | 1 | 1.48e6 | 1.49e6 | 1.09e6 | 1.25e6 | inactive |
| x16 | 1 | 1.70e6 | 1.71e6 | 1.15e6 | 1.34e6 | inactive |
| x16 | 2 | 1.43e6 | 1.44e6 | 6.60e5 | 6.56e5 | inactive |
| CG9044 | 1 | 1.28e6 | 1.37e6 | 6.53e5 | 8.98e5 | inactive |
| Sod3 | 1 | 1.43e6 | 1.51e6 | 1.06e6 | 1.14e6 | inactive |
| IPIP | 1 | 1.33e6 | 1.37e6 | 6.52e5 | 8.93e5 | inactive |
| ppk25 | 1 | 1.49e6 | 1.63e6 | 1.20e6 | 1.39e6 | inactive |
| Mf | 1 | 1.27e6 | 1.41e6 | 1.08e6 | 1.21e6 | inactive |
| unc80 | 1 | 1.53e6 | 1.51e6 | 1.02e6 | 1.16e6 | inactive |
| Mettl3 | 1 | 1.51e6 | 1.49e6 | 9.50e5 | 1.07e6 | inactive |
| CG6654 | 1 | 1.55e6 | 1.62e6 | 1.20e6 | 1.38e6 | inactive |

Part of the list above, set out differently:
gene | reagent no. | Kc cell number, rep 1 | Kc cell number, rep 2 | S2R+ cell number, rep 1 | S2R+ cell number, rep 2 | call
ebo | 1 | 4.61e5 | – | 7.59e5 | – | inactive
Ipk2 | 1 | 1.60e6 | 1.65e6 | 1.01e6 | 1.15e6 | inactive
CG5849 | 1 | 1.34e6 | 1.37e6 | 1.04e6 | 1.11e6 | inactive
lectin-46Cb | 1 | 1.78e6 | 1.84e6 | 1.26e6 | 1.52e6 | inactive

More records follow.
| gene | reagent no. | Kc cell number, rep 1 | Kc cell number, rep 2 | S2R+ cell number, rep 1 | S2R+ cell number, rep 2 | call |
| --- | --- | --- | --- | --- | --- | --- |
| E(spl)mgamma-HLH | 1 | 1.51e6 | 1.70e6 | 1.03e6 | 1.20e6 | inactive |
| Ntf-2r | 1 | 1.63e6 | 1.54e6 | 1.30e6 | 1.53e6 | inactive |
| Osi5 | 1 | 1.56e6 | 1.52e6 | 1.34e6 | 1.53e6 | inactive |
| obst-E | 1 | 1.31e6 | 1.51e6 | 3.29e5 | 3.59e5 | inactive |
| CG8353 | 1 | 1.44e6 | 1.58e6 | 1.06e6 | 1.26e6 | inactive |
| Elp5 | 1 | 1.37e6 | 1.44e6 | 9.27e5 | 1.16e6 | inactive |
| CG5866 | 1 | 1.25e6 | 1.50e6 | 1.06e6 | 1.17e6 | inactive |
| His2Av | 1 | 5.46e5 | – | 8.20e5 | – | inactive |
| GstD7 | 1 | 1.80e6 | 1.69e6 | 1.41e6 | 1.57e6 | inactive |
| Grip128 | 1 | 5.60e5 | – | 8.69e5 | – | inactive |
| l(3)neo38 | 1 | 1.46e6 | 1.56e6 | 1.05e6 | 1.19e6 | inactive |
| l(3)neo38 | 2 | 1.57e6 | 1.65e6 | 1.38e6 | 1.50e6 | inactive |
| CG42534 | 1 | 1.54e6 | 1.58e6 | 9.67e5 | 1.05e6 | inactive |
| CG42534 | 2 | 1.62e6 | 1.68e6 | 8.46e5 | 9.41e5 | inactive |
| CG42534 | 3 | 1.58e6 | 1.60e6 | 1.05e6 | 1.21e6 | inactive |
| CG5800 | 1 | 1.52e6 | 1.60e6 | 1.09e6 | 1.22e6 | inactive |
| CG15564 | 1 | 1.61e6 | 1.65e6 | 1.06e6 | 1.16e6 | inactive |
| CG6685 | 1 | 1.24e6 | 1.22e6 | 1.33e6 | 1.42e6 | inactive |
| Vha100-5 | 1 | 1.71e6 | 1.74e6 | 1.22e6 | 1.33e6 | inactive |
| snoRNA:U31:54Ec + snoRNA:snR38:54Eb + snoRNA:U27:54Eb + 8 more | 1 | 1.64e6 | 1.70e6 | 1.20e6 | 1.36e6 | inactive |
| CG17141 | 1 | 1.50e6 | 1.43e6 | 9.61e5 | 1.04e6 | inactive |
| Ciz1 | 1 | 1.89e6 | 1.87e6 | 1.14e6 | 1.33e6 | inactive |
| Alh | 1 | 1.01e6 | 9.92e5 | 7.40e5 | 8.51e5 | active |
| Alh | 2 | 1.45e6 | 1.46e6 | 1.25e6 | 1.30e6 | inactive |
| Alh | 3 | 1.67e6 | 1.76e6 | 1.28e6 | 1.46e6 | inactive |
| CG9743 | 1 | 1.36e6 | 1.41e6 | 1.01e6 | 1.15e6 | inactive |
| SMC5 | 1 | 1.59e6 | 1.59e6 | 1.38e6 | 1.36e6 | inactive |
| Paip1 | 1 | 1.19e6 | 1.22e6 | 1.02e6 | 1.08e6 | inactive |
| ImpL1 | 1 | 1.36e6 | 1.39e6 | 1.66e6 | 1.11e6 | inactive |
